How the values were obtained:
[1] = target: Tyrosine-protein kinase JAK2 (Homo sapiens, UniProt O60674)
[2] = target: T1, Tyrosine-protein kinase JAK3 (Homo sapiens, UniProt P52333)
T1 sequence (P52333 whole entry): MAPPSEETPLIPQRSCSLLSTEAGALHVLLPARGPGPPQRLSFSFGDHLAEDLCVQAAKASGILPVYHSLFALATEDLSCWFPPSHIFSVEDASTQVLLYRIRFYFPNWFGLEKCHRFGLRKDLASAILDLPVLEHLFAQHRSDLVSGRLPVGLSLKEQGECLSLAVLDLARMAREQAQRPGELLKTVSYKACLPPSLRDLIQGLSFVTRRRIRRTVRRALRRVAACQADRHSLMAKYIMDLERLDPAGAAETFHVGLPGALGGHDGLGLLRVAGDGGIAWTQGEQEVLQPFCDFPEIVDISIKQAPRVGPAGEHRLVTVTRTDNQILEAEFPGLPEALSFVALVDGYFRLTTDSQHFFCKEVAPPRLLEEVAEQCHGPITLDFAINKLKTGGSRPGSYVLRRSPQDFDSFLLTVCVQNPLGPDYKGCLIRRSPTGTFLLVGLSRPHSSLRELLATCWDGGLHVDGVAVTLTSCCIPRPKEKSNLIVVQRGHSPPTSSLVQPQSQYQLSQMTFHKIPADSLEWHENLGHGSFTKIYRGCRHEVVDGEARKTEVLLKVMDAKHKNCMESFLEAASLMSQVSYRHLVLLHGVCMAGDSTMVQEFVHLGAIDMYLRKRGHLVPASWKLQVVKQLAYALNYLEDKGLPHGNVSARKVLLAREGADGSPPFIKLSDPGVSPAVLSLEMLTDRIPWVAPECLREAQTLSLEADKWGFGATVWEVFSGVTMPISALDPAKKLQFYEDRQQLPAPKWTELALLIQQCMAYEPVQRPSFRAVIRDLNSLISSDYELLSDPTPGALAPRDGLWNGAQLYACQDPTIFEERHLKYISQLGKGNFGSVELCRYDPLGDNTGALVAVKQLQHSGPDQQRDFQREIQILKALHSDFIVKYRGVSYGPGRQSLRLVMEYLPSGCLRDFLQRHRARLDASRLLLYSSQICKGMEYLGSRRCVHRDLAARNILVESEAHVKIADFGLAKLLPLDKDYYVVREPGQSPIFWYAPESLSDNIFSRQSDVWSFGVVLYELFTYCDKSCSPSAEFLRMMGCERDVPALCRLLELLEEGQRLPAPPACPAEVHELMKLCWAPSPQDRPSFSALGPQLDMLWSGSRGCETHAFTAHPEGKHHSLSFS

Protein sequences, listed by entry. Tags and fused reporters are not part of them. Lines headed by an entry give the natural chain unless they say otherwise; changes in a name come on top.
UniProt O60674: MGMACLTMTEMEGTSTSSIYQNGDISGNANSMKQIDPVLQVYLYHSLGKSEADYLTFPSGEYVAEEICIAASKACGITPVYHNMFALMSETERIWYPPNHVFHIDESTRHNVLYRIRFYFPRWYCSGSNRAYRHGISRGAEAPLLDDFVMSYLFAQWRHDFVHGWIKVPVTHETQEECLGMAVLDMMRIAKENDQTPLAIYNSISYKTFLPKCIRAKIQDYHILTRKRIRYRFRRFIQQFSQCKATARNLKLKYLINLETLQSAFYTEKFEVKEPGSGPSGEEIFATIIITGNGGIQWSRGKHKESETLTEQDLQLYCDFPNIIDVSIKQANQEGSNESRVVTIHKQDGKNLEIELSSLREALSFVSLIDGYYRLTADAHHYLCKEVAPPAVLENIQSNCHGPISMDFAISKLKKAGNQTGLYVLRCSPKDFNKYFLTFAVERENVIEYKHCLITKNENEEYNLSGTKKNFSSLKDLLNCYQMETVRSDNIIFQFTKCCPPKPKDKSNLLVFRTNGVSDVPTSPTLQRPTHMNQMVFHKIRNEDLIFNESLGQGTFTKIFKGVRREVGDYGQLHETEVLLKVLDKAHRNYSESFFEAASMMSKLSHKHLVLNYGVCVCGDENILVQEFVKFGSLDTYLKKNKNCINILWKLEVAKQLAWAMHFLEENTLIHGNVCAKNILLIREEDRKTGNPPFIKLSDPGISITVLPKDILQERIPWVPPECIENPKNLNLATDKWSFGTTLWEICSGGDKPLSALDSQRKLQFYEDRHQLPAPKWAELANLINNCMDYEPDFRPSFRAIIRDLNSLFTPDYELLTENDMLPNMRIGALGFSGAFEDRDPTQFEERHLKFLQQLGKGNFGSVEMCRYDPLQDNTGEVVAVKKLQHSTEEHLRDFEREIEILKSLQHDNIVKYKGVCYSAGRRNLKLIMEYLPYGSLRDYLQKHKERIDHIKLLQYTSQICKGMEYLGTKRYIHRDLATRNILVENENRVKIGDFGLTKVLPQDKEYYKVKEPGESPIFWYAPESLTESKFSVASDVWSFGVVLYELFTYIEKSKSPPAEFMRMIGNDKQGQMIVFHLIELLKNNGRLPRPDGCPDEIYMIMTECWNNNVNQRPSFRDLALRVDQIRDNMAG

[3] = target: T1, Tyrosine-protein kinase JAK3; remark: listed apart in the source
[4] = target: T1, Tyrosine-protein kinase JAK3; assay: Inhibition of human JAK3 using GEEEEYFELVKKKK as substrate in presence of 200 uM [gamma33P]ATP by radiometric method

SMILES | IC50 [1] | EC50 [2] | IC50 [3] | IC50 [4]
CC(C)(O)C(=O)N1CCN(c2ccc(C(F)(F)F)c(C3=C(c4c[nH]c5ccccc45)C(=O)NC3=O)c2)CC1 | 0.578 µM |  |  | 
CN(C)C(=O)C(C#N)=Cc1ccc(-c2nc3cnc4[nH]ccc4c3n2C2CCCCC2)o1 |  | 0.237 µM | 0.009 µM | 0.002 µM

Source: ChEMBL document CHEMBL4118225, “Development, Optimization, and Structure-Activity Relationships of Covalent-Reversible JAK3 Inhibitors Based on a Tricyclic Imidazo[5,4- d]pyrrolo[2,3- b]pyridine Scaffold” (J Med Chem, 2018)
